According to patent US20200317755A1:
These are yes or no findings as the source states them, for the method shown. Some binding calls cover weakened binding; strength is not graded here.

Sequences of proteins named here, by UniProt entry; tags and fusion partners are left off. Residues count along the entry.
UniProt Q32ZE1, residues 291-694: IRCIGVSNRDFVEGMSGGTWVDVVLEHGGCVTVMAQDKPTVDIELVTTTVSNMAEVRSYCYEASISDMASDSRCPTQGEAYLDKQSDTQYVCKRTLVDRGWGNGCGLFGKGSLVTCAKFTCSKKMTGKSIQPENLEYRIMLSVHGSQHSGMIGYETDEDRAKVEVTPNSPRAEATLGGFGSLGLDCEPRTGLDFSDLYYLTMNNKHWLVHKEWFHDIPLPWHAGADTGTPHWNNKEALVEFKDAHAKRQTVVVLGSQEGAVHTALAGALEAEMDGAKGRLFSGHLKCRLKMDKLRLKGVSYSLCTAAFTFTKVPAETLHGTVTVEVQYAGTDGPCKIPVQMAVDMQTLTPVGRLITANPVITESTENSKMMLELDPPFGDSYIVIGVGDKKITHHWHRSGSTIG

Legend:
[1] = molecular target: ZIKV E protein (Zika virus) (UniProt Q32ZE1); experiment: ELISA, coated antigen
[2] = molecular target: ZIKV EDIII (Zika virus); experiment: ELISA, coated antigen
[3] = molecular target: ZIKV E protein (Zika virus) (UniProt Q32ZE1); experiment: ELISA (FIG. 1 and FIG. 2)
[4] = molecular target: ZIKV EDIII (Zika virus); experiment: ELISA (FIG. 1 and FIG. 2)

Measured: binding

B1: ZKA64 (antibody, V domains shown)
VH: QVQLVQSGAEVKKPGASVKVSCKASGYTFTGYHIDWVRQARGQGLEWMGRINPNSGGTNYAQKFQGRVTMTRDTSISTAYMQLSRLRSDDSAVYYCARMSSSIWGFDHWGQGTLVTVSS
VL: EIVMTQSPATLSVSPGERATLSCRASQSVLINLAWYQQKPGQAPRLLIYGASSRATGIPARFSGSGSGTEFTLTISSLQSEDFAVYYCQQYNDWPPITFGQGTRLEIK
binds: all assays above
